# Measured values: PMC8617076
# Amino acid sequences for entries named in this document (tags omitted).
# UniProt Q01831: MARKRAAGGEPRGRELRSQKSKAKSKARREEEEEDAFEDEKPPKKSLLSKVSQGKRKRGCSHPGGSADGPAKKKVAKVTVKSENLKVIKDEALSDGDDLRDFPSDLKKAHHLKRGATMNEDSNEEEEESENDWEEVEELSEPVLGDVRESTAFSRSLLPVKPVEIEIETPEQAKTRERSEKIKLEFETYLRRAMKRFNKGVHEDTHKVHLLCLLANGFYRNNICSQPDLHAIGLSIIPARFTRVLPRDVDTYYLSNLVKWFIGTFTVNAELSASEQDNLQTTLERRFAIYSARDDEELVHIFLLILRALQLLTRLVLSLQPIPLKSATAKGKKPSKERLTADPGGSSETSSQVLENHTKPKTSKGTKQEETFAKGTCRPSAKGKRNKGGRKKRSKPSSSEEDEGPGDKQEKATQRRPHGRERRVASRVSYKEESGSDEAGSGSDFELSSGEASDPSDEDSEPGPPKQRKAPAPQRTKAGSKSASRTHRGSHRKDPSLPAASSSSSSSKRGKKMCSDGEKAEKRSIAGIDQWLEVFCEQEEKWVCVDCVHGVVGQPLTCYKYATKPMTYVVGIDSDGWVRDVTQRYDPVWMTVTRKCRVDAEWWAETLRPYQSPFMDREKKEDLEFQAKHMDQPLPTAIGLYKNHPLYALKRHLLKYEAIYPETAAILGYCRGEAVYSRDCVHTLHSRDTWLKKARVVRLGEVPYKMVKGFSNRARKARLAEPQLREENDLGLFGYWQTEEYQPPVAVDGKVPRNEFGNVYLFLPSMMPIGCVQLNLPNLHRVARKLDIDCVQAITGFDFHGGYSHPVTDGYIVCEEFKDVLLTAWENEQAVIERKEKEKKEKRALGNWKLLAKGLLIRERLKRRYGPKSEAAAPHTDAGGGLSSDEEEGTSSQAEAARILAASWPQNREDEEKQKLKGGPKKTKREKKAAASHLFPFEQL
# UniProt P54725: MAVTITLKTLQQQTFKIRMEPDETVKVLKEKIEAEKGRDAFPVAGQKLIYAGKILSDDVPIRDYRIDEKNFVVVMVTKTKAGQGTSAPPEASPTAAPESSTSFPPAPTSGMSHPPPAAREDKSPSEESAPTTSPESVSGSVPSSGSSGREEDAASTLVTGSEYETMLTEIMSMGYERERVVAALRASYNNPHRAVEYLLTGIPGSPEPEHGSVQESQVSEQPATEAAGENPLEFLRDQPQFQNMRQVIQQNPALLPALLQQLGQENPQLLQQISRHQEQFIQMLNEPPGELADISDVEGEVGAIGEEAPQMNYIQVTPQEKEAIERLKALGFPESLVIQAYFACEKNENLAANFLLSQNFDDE
# Results are given in words; binding and its absence hold for the method and conditions named. In cells and extracts the contact can be indirect. Some results given as binding are weak or reduced against the parent protein; the word gives no strength.
# Molecular target: FLAG-tagged XPC (human) (UniProt Q01831)
# Assay: co-IP; whole-cell extracts of transfected HEK293T cells, FLAG-M2 beads, elution with FLAG peptide under native conditions, immunoblot for FLAG, HA, myc tags or hHR23B
substance,measurement,value
HA-tagged hHR23AFL (from UniProt P54725 1-363),binding,binds
